In PubChem BioAssay AID540276 (National Center for Advancing Translational Sciences (NCATS), 2011):
Among all 300,000 compounds or so, about 5,400 (1.8%) were called active. Inconclusive means that the source gave no clear call. Such entries were picked first, then a sample of the others. Calls follow the shape of the full dose curve; tested in HEK293 cells. A potency beside an inconclusive call is a rough fit, not a confirmed value.

Assay: qHTS for inhibitors of binding or entry into cells for Marburg Virus
Settings: Marburg virus pseudotyped entry inhibition, cell reporter; activity change, negative = inhibition: at 37.8 µM (top of the series) unless noted
% is scaled to controls: 0 for no effect and ±100 for the full control effect; potency is read from the fitted curve at half-maximal effect.

Compound	Potency	activity change, negative = inhibition
O=C1OC2(CCCCC2)CC2=C1[C@H]1O[C@](c3ccsc3)(Cc3ccccc31)O2	inconclusive: 5.96 µM [activator, single point]	
CNC(=S)NNC(=O)c1sccc1OCc1ccc(Cl)cc1Cl	inactive	
Cc1cc(C(=O)Nc2ccon2)c(C)o1	inactive	
CCn1c(SCC(=O)Nc2ccc(Br)cc2)nc2sc3c(c2c1=O)CCN(C)C3	inactive	
C=CCN1CC(O)=C(c2nc3ccccc3[nH]2)C1=N	inconclusive: 8.91 µM [activator, partial curve, poor fit]	
CC(=O)c1ccc(NC(=O)c2cc(-c3ccc4c(c3)OCO4)on2)cc1	inactive	
Cc1ccc(N/C=C/C(=O)c2ccc(C)cc2)cc1	inconclusive: 7.08 µM [activator, partial curve, poor fit]	
Cc1ccc(O)c(NC(=S)NC(=O)C(C)C)c1	inactive	
COc1ccc(C(=O)Cn2ccsc2=NC(C)=O)cc1	inconclusive: 1.78 µM [activator, partial curve, poor fit]	
Cc1ccc(NC(=O)CN2CCN(C(=O)c3ccco3)CC2)cc1S(=O)(=O)N(C)C	inactive	
O=C(C[n+]1cc(-c2ccccc2)n2c1CCC2)OCc1ccccc1	inconclusive: 20 µM [inhibitor, single point]	
CNCCOc1ccc(Cl)c(Cl)c1	inconclusive: 12.6 µM [inhibitor, partial curve, poor fit]	
O=C(Oc1ccc(Br)cc1C(=S)N1CCOCC1)c1cccc([N+](=O)[O-])c1	inconclusive: 2.51 µM [inhibitor, partial curve, poor fit]	
Cc1cccc(-n2nc(C)cc2N)c1	inactive	
COc1cc(-c2nnc(SCC(=O)N(Cc3ccccc3)C(C)(C)C)o2)cc(OC)c1OC	inconclusive: 16.4 µM [inhibitor, partial curve, poor fit]	
COCC(C)NC(=O)c1cnn2c(C(F)F)cc(-c3ccccc3)nc12 (configuration not stated)	inactive	
CN(C(=O)Cn1cc(S(=O)(=O)N2CCN(c3ccccc3F)CC2)c2ccccc2c1=O)c1ccc(Cl)cc1	inconclusive: 6.31 µM [inhibitor, partial curve]	
COc1cc2c(cc1O)C[C@H]1NCCc3cc4c(c-2c31)OCO4	inconclusive: 11.6 µM [inhibitor, partial curve, poor fit]	
Cc1[nH]nc(SCC(=O)NCc2ccc(Cl)cc2)c1[N+](=O)[O-]	inconclusive: 3.16 µM [activator, partial curve, poor fit]	
O=S(=O)(NCC1CCCO1)c1ccc(Cl)nc1 (configuration not stated)	inactive	
Cc1ccc2nc3c(c(C(=O)OCC(=O)NC4CCS(=O)(=O)C4)c2c1)CCCC3 (configuration not stated)	inactive	
COc1ccc(NC(=O)C(c2cc3c(cc2[N+](=O)[O-])OCO3)N2CCN(C=O)CC2)cc1 (configuration not stated)	inconclusive: 35.5 µM [activator, single point]	
O=C(COC(=O)c1ccccc1C(=O)N1CCN(c2ccccc2)CC1)Nc1ccccc1	inconclusive: 11.2 µM [inhibitor, partial curve, poor fit]	
COc1cc(/C=N/NC(=O)c2cnccn2)ccc1O	inconclusive: 1 µM [activator, full curve, poor fit]	

13 entries out of the list, sorted by SMILES length, rising.
Compound	Potency	activity change, negative = inhibition
CNCCOc1ccc(Cl)c(Cl)c1	inconclusive: 12.6 µM [inhibitor, partial curve, poor fit]	
Cc1cccc(-n2nc(C)cc2N)c1	inactive	
Cc1cc(C(=O)Nc2ccon2)c(C)o1	inactive	
Cc1ccc(O)c(NC(=S)NC(=O)C(C)C)c1	inactive	
COc1ccc(C(=O)Cn2ccsc2=NC(C)=O)cc1	inconclusive: 1.78 µM [activator, partial curve, poor fit]	
C=CCN1CC(O)=C(c2nc3ccccc3[nH]2)C1=N	inconclusive: 8.91 µM [activator, partial curve, poor fit]	
CNC(=S)NNC(=O)c1sccc1OCc1ccc(Cl)cc1Cl	inactive	
COc1cc2c(cc1O)C[C@H]1NCCc3cc4c(c-2c31)OCO4	inconclusive: 11.6 µM [inhibitor, partial curve, poor fit]	
Cc1[nH]nc(SCC(=O)NCc2ccc(Cl)cc2)c1[N+](=O)[O-]	inconclusive: 3.16 µM [activator, partial curve, poor fit]	
O=C(Oc1ccc(Br)cc1C(=S)N1CCOCC1)c1cccc([N+](=O)[O-])c1	inconclusive: 2.51 µM [inhibitor, partial curve, poor fit]	
O=C1OC2(CCCCC2)CC2=C1[C@H]1O[C@](c3ccsc3)(Cc3ccccc31)O2	inconclusive: 5.96 µM [activator, single point]	
COc1ccc(NC(=O)C(c2cc3c(cc2[N+](=O)[O-])OCO3)N2CCN(C=O)CC2)cc1 (configuration not stated)	inconclusive: 35.5 µM [activator, single point]	
CN(C(=O)Cn1cc(S(=O)(=O)N2CCN(c3ccccc3F)CC2)c2ccccc2c1=O)c1ccc(Cl)cc1	inconclusive: 6.31 µM [inhibitor, partial curve]	

(more compounds)

Compound	Potency	activity change, negative = inhibition
Cc1nc2cc(N3CCN(C)CC3)c(NC(=O)Cc3ccccc3)cc2c(=O)n1Cc1ccccc1	inconclusive: 17.8 µM [inhibitor, single point]	
Cc1nnc(SCC(=O)N2CCC(C(N)=O)CC2)s1	inconclusive: 3.16 µM [activator, partial curve, poor fit]	
O=C(C1CCN(S(=O)(=O)N2CCOCC2)CC1)N1CCN(Cc2ccccc2)CC1	inconclusive: 35.5 µM [activator, partial curve, poor fit]	
S=C(Nc1ccccc1)c1nc2ccccc2s1	inconclusive: 20.6 µM [activator, single point]	
Cc1nc(C)c2c(=O)cc(-c3ccccc3)[nH]c2n1	inconclusive: 2.31 µM [inhibitor, full curve, poor fit]	
COC(=O)C(Cc1c[nH]c2ccccc12)NC(C)=O (configuration not stated)	inactive	
O=C(CCn1c(=S)oc2ccccc21)Nc1ccccc1F		inconclusive: 7.53% [activator] [at 46.1 µM]
N#C/C(=N\Nc1ccc([N+](=O)[O-])cc1)C(N)=S	inconclusive: 15.8 µM [inhibitor, single point]	
COc1ccc(-c2cc3nc(C)c(CCC(=O)Nc4cccc(C(F)(F)F)c4)c(C)n3n2)c(OC)c1	inactive	
CCOc1ccc(NS(=O)(=O)c2cccc(C(=O)NCC3(N(C)C)CCCCC3)c2)cc1	active: 11.2 µM	
O=C(NCC1CCCO1)c1ccccc1 (configuration not stated)	inconclusive: 6.51 µM [inhibitor, single point]	
CC(Oc1ccccc1)C(=O)Nc1ccc(NC(=O)c2ccccc2)cc1 (configuration not stated)	inactive	
O=C(COC(=O)c1ccccn1)NCc1cccc(Cl)c1	inactive	
CCc1ccc(-c2nc(CN3CCCC(C(=O)NCc4ccc(C)cc4)C3)c(C)o2)cc1 (configuration not stated)	inactive	
CC(C)(C)c1csc(Sc2ccc([N+](=O)[O-])cn2)n1	inconclusive: 8.91 µM [inhibitor, partial curve]	
CCSc1nnc(NC(=O)c2csc3c2CCC(C)C3)s1 (configuration not stated)	inactive	
CCCOc1ccc(N2C(=O)CC(N3CCN(S(=O)(=O)c4ccccc4)CC3)C2=O)cc1 (configuration not stated)	inconclusive: 29.1 µM [activator, single point]	
O=C(Nc1ccccc1)c1ccc(CN2CCC(Cc3ccccc3)CC2)cc1	inconclusive: 3.98 µM [inhibitor, full curve]	
COc1ccc2[nH]c(=O)c(CN(Cc3ccco3)C(c3nnnn3Cc3ccccc3)C(C)C)cc2c1 (configuration not stated)	active: 13 µM	
Cc1cc(=O)[nH]c(N/N=C/c2c(C)nn(-c3ccc(F)cc3)c2Cl)n1	inactive	
O=C(Nc1nnc(C(F)(F)F)s1)c1cccnc1	inactive	
COC(=O)CSc1nnc(-c2ccc(S(=O)(=O)N3CCCC3)cc2)n1C	inactive	
CN(c1ccccc1)S(=O)(=O)c1ccc(C(=O)Nc2nnc(-c3ccco3)o2)cc1	inconclusive: 35.5 µM [inhibitor, partial curve, poor fit]	
